From article PMC3377666
No constants are given. Whether binding was seen depends on the method and setting. Some entries that bind do so weakly or less than the wild type.

Sequences of proteins named here, by UniProt entry; tags and fusion partners are left off. A change or cut given only in a name is not applied to a line headed by its entry.
UniProt P28340: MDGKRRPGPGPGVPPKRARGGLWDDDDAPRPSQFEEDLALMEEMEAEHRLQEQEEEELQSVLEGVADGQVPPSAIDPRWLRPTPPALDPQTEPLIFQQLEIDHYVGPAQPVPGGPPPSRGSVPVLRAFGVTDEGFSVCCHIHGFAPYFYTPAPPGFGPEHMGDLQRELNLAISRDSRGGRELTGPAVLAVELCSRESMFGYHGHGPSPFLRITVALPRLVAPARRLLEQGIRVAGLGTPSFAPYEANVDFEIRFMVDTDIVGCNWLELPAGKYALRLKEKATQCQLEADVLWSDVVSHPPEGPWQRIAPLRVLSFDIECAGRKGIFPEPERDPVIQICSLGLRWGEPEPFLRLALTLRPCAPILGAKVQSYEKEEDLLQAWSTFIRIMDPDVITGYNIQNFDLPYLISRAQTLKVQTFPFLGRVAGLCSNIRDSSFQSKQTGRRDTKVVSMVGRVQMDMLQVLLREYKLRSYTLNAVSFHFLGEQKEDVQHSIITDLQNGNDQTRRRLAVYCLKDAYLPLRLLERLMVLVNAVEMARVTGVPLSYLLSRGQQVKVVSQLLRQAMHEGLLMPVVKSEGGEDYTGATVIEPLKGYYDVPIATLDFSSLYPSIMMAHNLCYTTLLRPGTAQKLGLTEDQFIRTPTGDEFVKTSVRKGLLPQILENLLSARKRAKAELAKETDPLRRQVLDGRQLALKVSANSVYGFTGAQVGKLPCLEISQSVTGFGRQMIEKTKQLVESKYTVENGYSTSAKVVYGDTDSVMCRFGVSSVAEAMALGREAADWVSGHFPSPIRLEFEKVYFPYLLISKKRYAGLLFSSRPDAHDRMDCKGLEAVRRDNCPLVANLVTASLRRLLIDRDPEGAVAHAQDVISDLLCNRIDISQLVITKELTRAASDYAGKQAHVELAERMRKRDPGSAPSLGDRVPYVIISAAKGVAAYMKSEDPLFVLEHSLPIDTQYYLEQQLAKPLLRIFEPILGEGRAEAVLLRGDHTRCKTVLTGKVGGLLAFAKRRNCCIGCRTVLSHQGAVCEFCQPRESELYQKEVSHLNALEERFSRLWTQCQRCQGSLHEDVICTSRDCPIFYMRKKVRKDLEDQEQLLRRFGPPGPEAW
UniProt P49005: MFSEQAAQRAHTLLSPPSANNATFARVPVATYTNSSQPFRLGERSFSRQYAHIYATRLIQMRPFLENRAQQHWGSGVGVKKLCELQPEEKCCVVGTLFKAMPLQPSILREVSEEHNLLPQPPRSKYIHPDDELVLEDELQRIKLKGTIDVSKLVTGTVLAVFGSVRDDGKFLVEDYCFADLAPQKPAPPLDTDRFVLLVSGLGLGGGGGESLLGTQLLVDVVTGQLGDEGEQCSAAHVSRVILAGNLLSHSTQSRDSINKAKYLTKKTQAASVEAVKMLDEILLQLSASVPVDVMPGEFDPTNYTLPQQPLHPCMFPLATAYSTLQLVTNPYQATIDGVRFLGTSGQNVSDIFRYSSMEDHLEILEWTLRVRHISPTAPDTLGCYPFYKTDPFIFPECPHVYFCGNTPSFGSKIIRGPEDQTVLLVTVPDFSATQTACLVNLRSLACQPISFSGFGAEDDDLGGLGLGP

Key:
[1] = target: human DNA polymerase δ catalytic subunit p125 (human) (UniProt P28340); assay: immunoaffinity chromatography and Mono Q co-purification; subunits co-expressed in Sf9 from a single MultiBac baculovirus; lysate on 78F5 anti-p125 agarose, wash TGEE with 0.1 M NaCl, elution 0.4 M NaCl and 30% ethylene glycol; Mono Q gradient 0.1 to 1 M NaCl; 12.5% SDS-PAGE, silver staining
[2] = target: native DNA polymerase δ subunit p125 of HeLa cells (human (endogenous in HeLa)) (UniProt P28340); assay: immunoaffinity chromatography with Western blot; lysate of HeLa cells (untreated, or UV-C 20 J/m^2 and harvested 4 hours later) on anti-p125 agarose at 4°C, wash TGEE with 0.1 M NaCl, elution 0.4 M NaCl and 30% ethylene glycol; fractions blotted for p12, p125, p50 and p68

Row | Substance | binding [1] | binding [2]
1 | human DNA polymerase δ subunit p50 (from UniProt P49005 1-469) | binds | –
2 | native DNA polymerase δ subunit p50 of HeLa cells (from UniProt P49005 1-469) | – | binds
